Patent US20070238731A1, “Dna-Pk Inhibitors” (KUDOS PHARMACEUTICALS LIMITED, priority 2004, published 2007)
Some entries share one result that the patent states for a list of compounds.

Test system: HeLa cells
Experiment: Survival Enhancement Ratio (clonogenic survival assay after 2 Gray irradiation)
Assay type: cell-based
Conditions: inhibitor 100 nM

O=C(CCNCC1CCCO1)Nc1ccc(-c2cccc3c(=O)cc(N4CCOCC4)oc23)c2sc3ccccc3c12 (centres unmarked) [Compound 53]
Survival Enhancement Ratio (SER): ≥ 2

CN(C)CCOc1ccc(-c2cccc3c(=O)cc(N4CCOCC4)oc23)c2sc3ccccc3c12 [Compound 88]
Survival Enhancement Ratio (SER): ≥ 2
